# Experimental data reported in the supplement of paper PMC8728848.
# The other results are listed elsewhere or left out.
# B1: Flo1 (Saccharomyces cerevisiae), P32768 (protein)
# chain: SGATEACLPAGQRKSGMNINFYQYSLKDSSTYSNAAYMAYGYASKTKLGSVGGQTDISIDYNIPCVSSSGTFPCPQEDSYGNWGCKGMGACSNSQGIAYWSTDLFGFYTTPTNVTLEMTGYFLPPQTGSYTFKFATVDDSAILSVGGATAFNCCAQQQPPITSTNFTIDGIKPWGGSLPPNIEGTVYMYAGYYYPMKVVYSNAVSWGTLPISVTLPDGTTVSDDFEGYVYSFDDDLSQSNCTVPDPSNY
# Experiments:
# Assay in all cases: glycan array binding signal (z-score within array); higher = stronger binding
# Conditions in all cases: glycan notation: IUPAC condensed, linker removed
# Fuc(a1-2)Gal = biological target: Fuc(a1-2)Gal
# Method in brief: (§1)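 Arrays were curated from the Consortium for Functional Glycomics database, 3228 in total, and kept only where the protein sequence was available. Binding is expressed as a within-array Z-score. This score was averaged across arrays of the same protein sequence at different concentrations or buffers and across linkers, and negative values can be read as non-binding.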
# Fuc(a1-2)Gal(b1-3)GalNAc = biological target: Fuc(a1-2)Gal(b1-3)GalNAc
# Method in brief: as §1
# [1] = biological target: Fuc(a1-2)Gal(b1-3)GalNAc(a1-3)[Fuc(a1-2)]Gal(b1-4)Glc
# Method in brief: as §1
# [2] = biological target: Fuc(a1-2)Gal(b1-3)GalNAc(a1-3)[Fuc(a1-2)]Gal(b1-4)GlcNAc
# Method in brief: as §1
# [3] = biological target: Fuc(a1-2)Gal(b1-3)GalNAc(b1-3)Gal
# Method in brief: as §1
# [4] = biological target: Fuc(a1-2)Gal(b1-3)GalNAc(b1-3)Gal(a1-4)Gal(b1-4)Glc
# Method in brief: as §1
# [5] = biological target: Fuc(a1-2)Gal(b1-3)GalNAc(b1-4)[Neu5Ac(a2-3)]Gal(b1-4)Glc
# Method in brief: as §1
# Fuc(a1-2)Gal(b1-3)GlcNAc = biological target: Fuc(a1-2)Gal(b1-3)GlcNAc
# Method in brief: as §1
# [6] = biological target: Fuc(a1-2)Gal(b1-3)GlcNAc(b1-2)Man(a1-3)[Fuc(a1-2)Gal(b1-3)GlcNAc(b1-2)Man(a1-6)]Man(b1-4)GlcNAc(b1-4)GlcNAc
# Method in brief: as §1
# [7] = biological target: Fuc(a1-2)Gal(b1-3)GlcNAc(b1-2)Man(a1-3)[Fuc(a1-2)Gal(b1-3)GlcNAc(b1-2)Man(a1-6)]Man(b1-4)GlcNAc(b1-4)[Fuc(a1-6)]GlcNAc
# Method in brief: as §1
# [8] = biological target: Fuc(a1-2)Gal(b1-3)GlcNAc(b1-3)Gal(b1-4)Glc
# Method in brief: as §1
# [9] = biological target: Fuc(a1-2)Gal(b1-3)GlcNAc(b1-3)GalNAc
# Method in brief: as §1
# [10] = biological target: Fuc(a1-2)Gal(b1-3)GlcNAc(b1-3)[Fuc(a1-2)Gal(b1-3)GlcNAc(b1-6)]GalNAc
# Method in brief: as §1
# [11] = biological target: Fuc(a1-2)Gal(b1-3)GlcNAc(b1-3)[Fuc(a1-3)[Gal(b1-4)]GlcNAc(b1-6)]Gal(b1-4)Glc
# Method in brief: as §1
# [12] = biological target: Fuc(a1-2)Gal(b1-3)GlcNAc(b1-3)[Gal(b1-4)GlcNAc(b1-6)]Gal(b1-4)Glc
# Method in brief: as §1
# [13] = biological target: Fuc(a1-2)Gal(b1-3)GlcNAc(b1-3)[Neu5Ac(a2-6)Gal(b1-4)GlcNAc(b1-6)]Gal(b1-4)Glc
# Method in brief: as §1
# [14] = biological target: Fuc(a1-2)Gal(b1-3)GlcNAc6S
# Method in brief: as §1
# [15] = biological target: Fuc(a1-2)Gal(b1-3)[Fuc(a1-4)]GlcNAc
# Method in brief: as §1
# [16] = biological target: Fuc(a1-2)Gal(b1-3)[Fuc(a1-4)]GlcNAc(b1-2)Man(a1-3)[Fuc(a1-2)Gal(b1-3)[Fuc(a1-4)]GlcNAc(b1-2)Man(a1-3)]Man(b1-4)GlcNAc(b1-4)GlcNAc
# Method in brief: as §1
# [17] = biological target: Fuc(a1-2)Gal(b1-3)[Fuc(a1-4)]GlcNAc(b1-2)Man(a1-3)[Fuc(a1-2)Gal(b1-3)[Fuc(a1-4)]GlcNAc(b1-2)Man(a1-6)]Man(b1-4)GlcNAc(b1-4)GlcNAc
# Method in brief: as §1
# [18] = biological target: Fuc(a1-2)Gal(b1-3)[Fuc(a1-4)]GlcNAc(b1-2)Man(a1-3)[Fuc(a1-2)Gal(b1-3)[Fuc(a1-4)]GlcNAc(b1-2)Man(a1-6)]Man(b1-4)GlcNAc(b1-4)[Fuc(a1-6)]GlcNAc(b1-4)[Fuc(a1-6)]GlcNAc
# Method in brief: as §1
# [19] = biological target: Fuc(a1-2)Gal(b1-3)[Fuc(a1-4)]GlcNAc(b1-3)[Fuc(a1-3)[Gal(b1-4)]GlcNAc(b1-6)]Gal(b1-4)Glc
# Method in brief: as §1
# [20] = biological target: Fuc(a1-2)Gal(b1-3)[Fuc(a1-4)]GlcNAc(b1-3)[Gal(b1-4)GlcNAc(b1-6)]Gal(b1-4)Glc
# Method in brief: as §1
# [21] = biological target: Fuc(a1-2)Gal(b1-4)Fuc(a1-3)]GlcNAc(b1-2)Man(a1-3)[Fuc(a1-2)Gal(b1-4)[Fuc(a1-3)]GlcNAc(b1-2)Man(a1-6)]Man(b1-4)GlcNAc(b1-4)GlcNAc
# Method in brief: as §1
# Fuc(a1-2)Gal(b1-4)Glc = biological target: Fuc(a1-2)Gal(b1-4)Glc
# Method in brief: as §1
# Fuc(a1-2)Gal(b1-4)Glc6S = biological target: Fuc(a1-2)Gal(b1-4)Glc6S
# Method in brief: as §1
# Fuc(a1-2)Gal(b1-4)GlcNAc = biological target: Fuc(a1-2)Gal(b1-4)GlcNAc
# Method in brief: as §1
# [22] = biological target: Fuc(a1-2)Gal(b1-4)GlcNAc(b1-2)Man
# Method in brief: as §1
# [23] = biological target: Fuc(a1-2)Gal(b1-4)GlcNAc(b1-2)Man(a1-3)[Fuc(a1-2)Gal(b1-4)GlcNAc(b1-2)Man(a1-6)]Man(b1-4)GlcNAc(b1-4)GlcNAc
# Method in brief: as §1
# [24] = biological target: Fuc(a1-2)Gal(b1-4)GlcNAc(b1-2)Man(a1-3)[Fuc(a1-2)Gal(b1-4)GlcNAc(b1-2)Man(a1-6)]Man(b1-4)GlcNAc(b1-4)[Fuc(a1-6)]GlcNAc
# Method in brief: as §1
# [25] = biological target: Fuc(a1-2)Gal(b1-4)GlcNAc(b1-2)[Fuc(a1-2)Gal(b1-4)GlcNAc(b1-4)]Man(a1-3)[Fuc(a1-2)Gal(b1-4)GlcNAc(b1-2)Man(a1-6)]Man(b1-4)GlcNAc(b1-4)GlcNAc
# Method in brief: as §1
# [26] = biological target: Fuc(a1-2)Gal(b1-4)GlcNAc(b1-3)Gal(b1-4)GlcNAc
# Method in brief: as §1
# [27] = biological target: Fuc(a1-2)Gal(b1-4)GlcNAc(b1-3)Gal(b1-4)GlcNAc(b1-2)Man(a1-3)[Fuc(a1-2)Gal(b1-4)GlcNAc(b1-3)Gal(b1-4)GlcNAc(b1-2)Man(a1-6)]Man(b1-4)GlcNAc(b1-4)GlcNAc
# Method in brief: as §1
# [28] = biological target: Fuc(a1-2)Gal(b1-4)GlcNAc(b1-3)Gal(b1-4)GlcNAc(b1-3)Gal(b1-4)GlcNAc
# Method in brief: as §1
# [29] = biological target: Fuc(a1-2)Gal(b1-4)GlcNAc(b1-3)GalNAc
# Method in brief: as §1
# [30] = biological target: Fuc(a1-2)Gal(b1-4)GlcNAc(b1-3)[Fuc(a1-2)Gal(b1-4)GlcNAc(b1-6)]GalNAc
# Method in brief: as §1
# [31] = biological target: Fuc(a1-2)Gal(b1-4)GlcNAc(b1-3)[Fuc(a1-3)[Gal(b1-4)]GlcNAc(b1-6)]Gal(b1-4)Glc
# Method in brief: as §1
binder,measurement,setting,value
B1,glycan array binding signal (z-score),Fuc(a1-2)Gal,-0.113
same,glycan array binding signal (z-score),Fuc(a1-2)Gal(b1-3)GalNAc,-0.086
same,glycan array binding signal (z-score),[1],0.168
same,glycan array binding signal (z-score),[2],0.193
same,glycan array binding signal (z-score),[3],-0.369
same,glycan array binding signal (z-score),[4],-0.43
same,glycan array binding signal (z-score),[5],-0.19
same,glycan array binding signal (z-score),Fuc(a1-2)Gal(b1-3)GlcNAc,-0.431
same,glycan array binding signal (z-score),[6],1.8
same,glycan array binding signal (z-score),[7],1.41
same,glycan array binding signal (z-score),[8],-0.007
same,glycan array binding signal (z-score),[9],-0.104
same,glycan array binding signal (z-score),[10],-0.277
same,glycan array binding signal (z-score),[11],-0.653
same,glycan array binding signal (z-score),[12],-0.127
same,glycan array binding signal (z-score),[13],0.477
same,glycan array binding signal (z-score),[14],0.055
same,glycan array binding signal (z-score),[15],-0.416
same,glycan array binding signal (z-score),[16],-0.362
same,glycan array binding signal (z-score),[17],2.44
same,glycan array binding signal (z-score),[18],0.133
same,glycan array binding signal (z-score),[19],-0.102
same,glycan array binding signal (z-score),[20],0.802
same,glycan array binding signal (z-score),[21],3.01
same,glycan array binding signal (z-score),Fuc(a1-2)Gal(b1-4)Glc,-0.432
same,glycan array binding signal (z-score),Fuc(a1-2)Gal(b1-4)Glc6S,-0.12
same,glycan array binding signal (z-score),Fuc(a1-2)Gal(b1-4)GlcNAc,-0.151
same,glycan array binding signal (z-score),[22],-0.317
same,glycan array binding signal (z-score),[23],1.06
same,glycan array binding signal (z-score),[24],-0.383
same,glycan array binding signal (z-score),[25],0.883
same,glycan array binding signal (z-score),[26],-0.511
same,glycan array binding signal (z-score),[27],-0.477
same,glycan array binding signal (z-score),[28],-0.084
same,glycan array binding signal (z-score),[29],0.478
same,glycan array binding signal (z-score),[30],-0.167
same,glycan array binding signal (z-score),[31],0.001

# Quoted from the entries so far (ten entries):
binder,measurement,setting,value
B1,glycan array binding signal (z-score),Fuc(a1-2)Gal(b1-4)Glc,-0.432
same,glycan array binding signal (z-score),Fuc(a1-2)Gal(b1-4)Glc6S,-0.12
same,glycan array binding signal (z-score),Fuc(a1-2)Gal(b1-4)GlcNAc,-0.151
same,glycan array binding signal (z-score),[22],-0.317
same,glycan array binding signal (z-score),[23],1.06
same,glycan array binding signal (z-score),[24],-0.383
same,glycan array binding signal (z-score),[25],0.883
same,glycan array binding signal (z-score),[26],-0.511
same,glycan array binding signal (z-score),[27],-0.477
same,glycan array binding signal (z-score),[28],-0.084
